{
  "source": "patent US12410228B2",
  "about": "(UNIVERSITY OF UTAH RESEARCH FOUNDATION, priority 2016, dated 2025)",
  "assay": "general procedure: Fmoc solid-phase peptide synthesis; Fmoc-Cys(Trt)-Rink Amide MBHA resin (0.21 mmol/g) for chain A; Fmoc-Arg(Pbf)-Wang resin (0.4 mmol/g) for chain B; HATU/DIEA",
  "conditions": "oxidative folding step, several disulfide bridges, sequence written open",
  "data": [
    {"substance": "Con-Ins G1", "values": [
      {"measurement": "final HPLC purity", "setting": "214 and 280 nm", "value": 89, "unit": "%"},
      {"measurement": "oxidative folding yield", "setting": "based on the starting amount of purified chain A", "value": 4, "unit": "%"},
      {"measurement": "final purity (method not given)", "setting": "capillary electrophoresis, 214 nm", "value": 80, "unit": "%"},
      {"measurement": "oxidative folding yield", "setting": "on partially folded product", "value": 35, "unit": "%"}
    ]}
  ]
}
